Data as given in PubChem BioAssay AID1508600 (Functional Genomics Laboratory (NCATS/FGL), 2020).
Out of some 53,000 sequences screened, about 3,700 (7%) were called active.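 The calls were made as follows: active = gene knockdowns whose robust z-score for IL-1 alpha signal is at least 2 or at most -2, so actives lie on both sides; inactive = the rest.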 The list shows a part of the results.

experiment: Components of the Cytosolic LPS Sensing Pathway: Gene Identification via Genome-wide siRNA Screen; details: RAW264.7 macrophages, IL-1a HTRF, actives lie on both sides, screened at 100 nM (by protocol), cells primed 5 h with Pam3CSK4 first;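 also: robust z of the log signal after scaling to non-targeting control siRNA wells of the plate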
Summary of the method: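 RAW264.7 mouse macrophages reverse-transfected with single siRNAs (100 nM final) for 48h, primed with Pam3CSK4 for 5 hours, then transfected with LipidA for 24 hour. Supernatant IL-1a read by HTRF; values normalized to negative-control median, log-transformed robust z-scores.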

| Sequence | z-score |
| --- | --- |
| GGCAAAGAAGGAGAAAGUATT against Cd209c | active: -2.06 |
| GGGUGGUGUUCCAUGACAGTT against Ubp1 | inactive: -1.82 |
| GGAAGUACAAUGCAGAUUGTT against Vmn2r1 | inactive: 0.218 |
| GCCUCAAUGGCACUCAAAUTT against Mdc1 | inactive: -0.217 |
| GGGAAAAUCCACUUUUAAGTT against Hs2st1 | inactive: -0.0469 |
| GGCAUGUCGAUCUGACCUUTT against Kcnc1 | inactive: 1.18 |
| GGUCUGAAGUAUAGCAAUGTT against Dynll2 | inactive: -1.33 |
| GCUUCUGACUUGUGAUGUGTT against Ppp6r2 | inactive: -1.02 |
| GGACUAUCAGCAUUUCGUUTT against Coq10b | inactive: -0.94 |
| GGCCAACUCACCUUUCUAGTT against D630023F18Rik | inactive: 1.84 |
| GGCAAAAUUUUAUAAGCUGTT against Ttf1 | inactive: -1.31 |
| GCACAGCUAAACUUAACUATT against Taz | inactive: 0.711 |
| GGAUUUACAUUCUCAUUGUTT against Olfr995 | inactive: -1.38 |
| GGGAGAACUCCUGAUUGACTT against Nnmt | inactive: 0.467 |
| GCCUAACUAUGAAACUUCGTT against Ppp1r11 | inactive: 0.754 |
| GGCCUUCAGUCAAAUGGGATT against 4921536K21Rik | inactive: -1.55 |
| GGAGGAGCGGUUUUAUCAGTT against Ubxn8 | inactive: 0.899 |
| GGCAGUGAGAGUCACAAGATT against Cdipt | inactive: -1.74 |
| CCAAGUGGUACGACCAUGATT against Gcnt3 | inactive: 1.3 |
| GGAAGACCCACAAAGGCUUTT against Rpl3l | inactive: 0.686 |
| GCUUCAUCUCCUAAAGCCCTT against Ring1 | inactive: 0.176 |
| GGUGAAAGUCACUAAAUCCTT against Vmn1r15 | inactive: -1.39 |

Reformatted: entries from further up.
Sequence,z-score
GGGUGGUGUUCCAUGACAGTT against Ubp1,inactive: -1.82
GCCUCAAUGGCACUCAAAUTT against Mdc1,inactive: -0.217
GGAGGAGCGGUUUUAUCAGTT against Ubxn8,inactive: 0.899
GGCAGUGAGAGUCACAAGATT against Cdipt,inactive: -1.74

Remaining list, next part:

| Sequence | z-score |
| --- | --- |
| CCUCACCAAACCUUGUUGATT against Cd300lg | inactive: -1.57 |
| GGCCAUGCUGAAAGUAUUUTT against Olfr561 | inactive: -1.46 |
| GGACACAGACCUUUGUUAATT against Lpar6 | inactive: -0.0566 |
| GAGUAGGAAUUAGAAUGAUTT against Tmem47 | inactive: -0.00808 |
| GCGCGACCUUCGAAUGUAATT against Rnf5 | inactive: -0.834 |
| GCUCAUAAAGCUGUAUAAATT against Zik1 | inactive: 0.354 |
| CCGAAUUAAGAAAGUGGUUTT against Ap1g1 | inactive: -0.651 |
| GCCUCUGAACUGAAAAAAATT against Tmem204 | inactive: -1.29 |
| GCUUGGGUCAUAGGGAUGATT against Olfr1288 | inactive: -0.371 |
| CGAAGAUAAUUAUGGAGCCTT against Fat4 | inactive: 0.548 |
| GAAGCUUGUAGUGACUGCCTT against Vmn1r30 | inactive: -0.765 |
| CCUCAGAAUAAAUGAAUCCTT against Oxld1 | inactive: -1.82 |
| GCAGGACUUGACAAUAGUCTT against Itgb1bp2 | inactive: -1.1 |
| GGAAUAAAUGUCGUCCCUUTT against Marcksl1 | inactive: 0.194 |
| GGGCCUUCCAAAAAAGAAGTT against Tut7 | inactive: -0.383 |
| GGGCCAGUCAUUGAAGAUUTT against U2af2 | inactive: -1.13 |
| GGCCAUCUUUCUAUACAAATT against Bcl10 | inactive: 1.17 |
| CCUACGUGCUGUGAGAUUCTT against Ccl25 | inactive: -0.314 |
| GGUGCCAGAAGAUUUACGATT against Fmr1 | inactive: 1.12 |
| GGCUUUUUAUUCUCAGCCUTT against Rmdn1 | inactive: 0.34 |
| GGCCACAGUGACUUUCAUCTT against Eif4e2 | inactive: -0.857 |
| CGGGUCCAGCCAAUUGCAUTT against Plxnc1 | inactive: -0.98 |

| Sequence | z-score |
| --- | --- |
| GGAUGUUGGUACUUUUUGATT against Pwp1 | inactive: -0.254 |
| GGUGUACAACAUCAGCGACTT against Fads1 | inactive: -0.454 |
| GCCCGUGUCAUCAUUUUCUTT against Doxl2 | inactive: 0.208 |
| GGCAUCCAAGCAAAAUGGCTT against Eng | inactive: -1.39 |
| GGUGGAGUUUCUCAAAAGCTT against Kcnc3 | inactive: 0.0264 |
| GGUACAUAUCCAUUCACAGTT against Cnr1 | inactive: -0.148 |
| CGUUUGGGAUCGAAAGUCATT against Tbl1x | inactive: -0.644 |
| GCCGGCAACACAUUUCUGUTT against Sobp | inactive: 0.105 |
| GGUGGAACACAUAUUUUAATT against Tbc1d13 | inactive: 0.837 |
| CCAACUUCGAUGCUGAGAGTT against Anxa2 | inactive: -1.8 |
| GGAGAACUUCAAAACUUUUTT against Tbx1 | inactive: -0.0203 |
| CGGAUCAUCAUGUACACUGTT against Tpsg1 | inactive: -0.633 |
| GGAAUAUCAGCCAUAAGUUTT against Cplx4 | inactive: 1.78 |
| GCUAACCACCACAGUAUGATT against Tmem42 | inactive: -0.884 |
| GGCUGGAGUAGAAGAACUGTT against Hsbp1 | inactive: 0.239 |
| GCUGGCUGAAACAUCUACCTT against Trappc1 | inactive: 0.706 |
| GGAAGAAUGUGAUGACUCATT against Zfp11 | inactive: -0.471 |
| GGGAGAAGAAUUUGAACAGTT against Ak1 | inactive: 0.557 |
| GCCAUGGUACACUACAUCUTT against Olfml1 | inactive: 0.318 |
| GCACCUUCCUAAUCACAGCTT against Rxfp4 | inactive: 0.0928 |
| GGAAGACCAAGAGGAAAACTT against Taf1d | inactive: -0.616 |
| GGUUUUGUACAAAAGGUCCTT against Ube2e2 | inactive: 0.31 |

| Sequence | z-score |
| --- | --- |
| GCACAUUGCUCCCAAGAAUTT against Smg6 | inactive: -1.03 |
| UAGAUGCAUGUUCCUCCUCTT against Olfr1158 | inactive: 0.59 |
| GCCCAAUCACACCAAGACATT against Doc2b | inactive: 0.357 |
| CCAUCAGUAUUCACAACAATT against Usp42 | active: -3.12 |
| CCCGAAGAGCAAAAAAGAUTT against 1110004F10Rik | inactive: -1.5 |
| GGCCAAGAUUAAGUUCUUGTT against Il12rb1 | inactive: 1.05 |
| ACAAGAUUGGGAUCAUCUATT against Rpl23a | inactive: 0.521 |
| GGUAACAUCUAUAUAUCACTT against Rb1 | inactive: 1.56 |
| GGUAUCGAAGAACUGGAAATT against Spast | inactive: 0.547 |
| GGUUGUUUUGCUUGUUGUATT against Tsc22d1 | inactive: 1.67 |
| CCUUGAACAUAUAUGUCAUTT against Fem1a | inactive: -0.0399 |
| GGUUUUGUCUGAUAAAACATT against Arsb | inactive: 1.02 |
| GCACAACGGUUCGUUGUUATT against 4933427E11Rik | inactive: -1.17 |
| GCACUUAUUUAGAAGACUGTT against Commd3 | inactive: 0.25 |
| GCUAUUCCCAUGACGUGUUTT against Gab1 | inactive: -0.204 |
| GCUCAAGUGCGGAGAAUAATT against Sgms1 | inactive: -1.55 |
| GGCGAUGUGAAAAUCUUAATT against Xpnpep2 | active: 3.65 |
| GUGUCAACCUAAGCUUGGCTT against Tlx3 | inactive: -1.19 |
| GGGAAGGGAGACAAGCAAATT against Slc2a10 | inactive: -0.43 |
| GGAAAAUGUAAGGACUUGATT against Rnase2b | inactive: -0.718 |
| GGAAGUGAUUUACAGUUUCTT against Wwtr1 | inactive: 1.11 |
| GGACUAUCAUCUGAUGCCATT against Klhl18 | active: 2.45 |

| Sequence | z-score |
| --- | --- |
| GGUAGUUGUUCUAUGUUUUTT against Olfr967 | inactive: -1.07 |
| GGCAUCAGCCUUCUCAAAGTT against Mmp21 | inactive: -0.781 |
| GCUGCAUUACACGUUCUAUTT against 4930590J08Rik | inactive: 0.131 |
| GCAAAAUAGCCCAGUAUAATT against Pax6 | active: -5.02 |
| CCAAAGCUAAAACGGGUGGTT against Tppp3 | inactive: 0.597 |
| CGAGCUGGAUCUGUUUAGATT against Nsmce1 | inactive: 0.357 |
| GCAGCUUGCUAAAAAUACATT against Lrrc20 | inactive: 1.05 |
| GAAAAGAGUUUCCACGAGATT against Il19 | inactive: 0.0645 |
| GGAUUAUGGAGUCUUAAAGTT against Prdx1 | inactive: -0.909 |
| GCCCGACAGGAGAUAUUUATT against B230340J04Rik | inactive: 1.67 |
| GGCUAACUUCCCAUUUAGCTT against Hmga1 | inactive: 0.136 |
| CGGAUAUCCACAAAUAUCGTT against Atp1b3 | inactive: 0.508 |
| GGUUGCUCAUUACAGUUAATT against Samd10 | inactive: 0.374 |
| GCACAACCAUAAUUCCAAATT against Olfr828 | inactive: -0.343 |
| GCUCGUUGUCCAUAGUAGATT against Olfr1273-ps | inactive: 0.178 |
| GCACUUCUACCGGAAAGUUTT against Mad2l1bp | inactive: -0.761 |
| GGUAGCUCUGAAAAAUGACTT against Sfmbt1 | inactive: 1 |
| GCAGAGUCGAAGUGAGAAGTT against Naca | inactive: -0.641 |
| GGUAUGUUCAAGAUCAAUATT against Ints8 | inactive: 0.793 |

An excerpt from the list above, for reference:

| Sequence | z-score |
| --- | --- |
| GGAAAAUGUAAGGACUUGATT against Rnase2b | inactive: -0.718 |
| GGAAGUGAUUUACAGUUUCTT against Wwtr1 | inactive: 1.11 |
| GGACUAUCAUCUGAUGCCATT against Klhl18 | active: 2.45 |
